From PMC7797683 come the findings set out here.

For assay [1], the target named is T1, ARHGEF2 (human (human gastric cancer cell lines)) (UniProt Q92974).
T1 sequence: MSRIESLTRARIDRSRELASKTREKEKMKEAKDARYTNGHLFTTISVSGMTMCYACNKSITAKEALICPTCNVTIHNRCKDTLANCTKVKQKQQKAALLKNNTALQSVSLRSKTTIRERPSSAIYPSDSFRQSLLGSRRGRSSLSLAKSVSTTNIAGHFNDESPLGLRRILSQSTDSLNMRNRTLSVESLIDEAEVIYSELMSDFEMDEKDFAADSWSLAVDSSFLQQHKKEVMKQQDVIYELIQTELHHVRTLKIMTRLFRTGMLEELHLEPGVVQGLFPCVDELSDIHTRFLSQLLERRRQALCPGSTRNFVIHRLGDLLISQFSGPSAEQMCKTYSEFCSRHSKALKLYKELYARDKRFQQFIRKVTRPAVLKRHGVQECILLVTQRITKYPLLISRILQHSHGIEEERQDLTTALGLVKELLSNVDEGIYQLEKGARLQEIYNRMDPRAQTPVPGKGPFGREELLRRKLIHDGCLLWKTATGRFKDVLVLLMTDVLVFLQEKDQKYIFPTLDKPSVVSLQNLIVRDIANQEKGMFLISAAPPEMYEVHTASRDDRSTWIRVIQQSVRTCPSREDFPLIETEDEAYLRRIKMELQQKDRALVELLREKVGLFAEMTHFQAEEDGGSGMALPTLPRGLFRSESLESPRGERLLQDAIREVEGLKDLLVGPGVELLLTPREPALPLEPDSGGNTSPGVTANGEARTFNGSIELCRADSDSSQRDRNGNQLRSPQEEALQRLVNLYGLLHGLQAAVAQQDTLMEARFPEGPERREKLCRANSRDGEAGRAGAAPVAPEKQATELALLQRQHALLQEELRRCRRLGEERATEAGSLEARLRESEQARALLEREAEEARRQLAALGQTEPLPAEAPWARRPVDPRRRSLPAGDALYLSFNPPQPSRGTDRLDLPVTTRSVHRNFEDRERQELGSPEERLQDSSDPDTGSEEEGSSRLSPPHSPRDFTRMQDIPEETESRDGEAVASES
The assay is described as follows: pull-down; pull-down assay of NEK9 and ARHGEF2 (Figure 3D, S1C); bait, tags and conditions not told in the text shown.

The target of assay [2] is T1, ARHGEF2 (human (human gastric cancer cell lines)). Kind of assay: co-IP; immunoprecipitation with anti-ARHGEF2 (ab155785), anti-NEK9 (sc-100401) or control IgG on protein A/G-agarose, then western blot.

No constants are given. Whether binding was seen depends on the method and setting. In cells and extracts the contact can be indirect. Some entries that bind do so weakly or less than the wild type.

B1: Never in mitosis gene A (NIMA)-related kinase 9 (NEK9) (enzyme, UniProt Q8TD19 1-979)
chain: MSVLGEYERHCDSINSDFGSESGGCGDSSPGPSASQGPRAGGGAAEQEELHYIPIRVLGRGAFGEATLYRRTEDDSLVVWKEVDLTRLSEKERRDALNEIVILALLQHDNIIAYYNHFMDNTTLLIELEYCNGGNLYDKILRQKDKLFEEEMVVWYLFQIVSAVSCIHKAGILHRDIKTLNIFLTKANLIKLGDYGLAKKLNSEYSMAETLVGTPYYMSPELCQGVKYNFKSDIWAVGCVIFELLTLKRTFDATNPLNLCVKIVQGIRAMEVDSSQYSLELIQMVHSCLDQDPEQRPTADELLDRPLLRKRRREMEEKVTLLNAPTKRPRSSTVTEAPIAVVTSRTSEVYVWGGGKSTPQKLDVIKSGCSARQVCAGNTHFAVVTVEKELYTWVNMQGGTKLHGQLGHGDKASYRQPKHVEKLQGKAIRQVSCGDDFTVCVTDEGQLYAFGSDYYGCMGVDKVAGPEVLEPMQLNFFLSNPVEQVSCGDNHVVVLTRNKEVYSWGCGEYGRLGLDSEEDYYTPQKVDVPKALIIVAVQCGCDGTFLLTQSGKVLACGLNEFNKLGLNQCMSGIINHEAYHEVPYTTSFTLAKQLSFYKIRTIAPGKTHTAAIDERGRLLTFGCNKCGQLGVGNYKKRLGINLLGGPLGGKQVIRVSCGDEFTIAATDDNHIFAWGNGGNGRLAMTPTERPHGSDICTSWPRPIFGSLHHVPDLSCRGWHTILIVEKVLNSKTIRSNSSGLSIGTVFQSSSPGGGGGGGGGEEEDSQQESETPDPSGGFRGTMEADRGMEGLISPTEAMGNSNGASSSCPGWLRKELENAEFIPMPDSPSPLSAAFSESEKDTLPYEELQGLKVASEAPLEHKPQVEASSPRLNPAVTCAGKGTPLTPPACACSSLQVEVERLQGLVLKCLAEQQKLQQENLQIFTQLQKLNKKLEGGQQVGMHSKGTQTAKEEMEMDPKPDLDSDSWCLLGTDSCRPSL
Take B1: the binding entry in assay [1] and in assay [2] was “binds” in each case.
